Experimental data reported in PMC9282935.
These are yes or no findings as the source states them, for the method shown. Binding seen in cells or lysates may run through a third protein. Some binding calls cover weakened binding; strength is not graded here.

By UniProt entry, the sequences of proteins in these tests, tags left out.
UniProt P09651: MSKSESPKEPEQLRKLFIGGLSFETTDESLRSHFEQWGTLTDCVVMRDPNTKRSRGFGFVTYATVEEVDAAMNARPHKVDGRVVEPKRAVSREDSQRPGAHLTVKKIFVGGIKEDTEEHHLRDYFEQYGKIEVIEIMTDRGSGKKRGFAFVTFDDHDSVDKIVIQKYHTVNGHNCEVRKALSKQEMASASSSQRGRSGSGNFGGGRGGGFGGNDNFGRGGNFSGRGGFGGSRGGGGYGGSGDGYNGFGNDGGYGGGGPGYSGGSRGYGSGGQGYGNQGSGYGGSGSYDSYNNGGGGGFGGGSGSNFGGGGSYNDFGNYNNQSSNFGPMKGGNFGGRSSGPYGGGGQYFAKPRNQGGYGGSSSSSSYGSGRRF
UniProt Q99816: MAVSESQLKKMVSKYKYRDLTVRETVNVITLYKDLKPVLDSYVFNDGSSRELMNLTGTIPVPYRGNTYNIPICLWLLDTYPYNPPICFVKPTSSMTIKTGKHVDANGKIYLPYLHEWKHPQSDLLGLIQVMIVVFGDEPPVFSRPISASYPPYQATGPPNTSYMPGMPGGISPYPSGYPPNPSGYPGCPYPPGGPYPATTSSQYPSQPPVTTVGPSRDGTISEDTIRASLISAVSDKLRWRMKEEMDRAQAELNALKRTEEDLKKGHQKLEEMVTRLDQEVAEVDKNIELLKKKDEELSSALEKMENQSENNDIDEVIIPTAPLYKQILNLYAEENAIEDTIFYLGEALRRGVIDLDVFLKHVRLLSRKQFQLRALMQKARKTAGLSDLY

Target: hnRNPA1^WT (transfected wild-type hnRNPA1) (UniProt P09651)
Test: co-IP; co-IP of hnRNPA1 (wild type or K113R) and TSG101 in PDAC cells with or without SAE1 overexpression; Western blotting

binding: binds
Substance: tumor susceptibility 101 (TSG101) (from UniProt Q99816 1-390)
